Earlier results, collected in patent publication US20220142904A1, “A METHOD OF COLORING KERATINOUS MATERIAL COMPRISING THE USE OF AN ORGANOSILICON COMPOUND, A COLORING COMPOUND, A SEALING REAGENT, AND A MIXTURE OF SILICONES” (Henkel AG & Co. KGaA, priority 2019, published 2022).

Conditions: 25° C.

In the case of `CCN(Cc1cccc(S(=O)(=O)[O-])c1)c1ccc(C(=C2C=CC(=[N+](CC)Cc3cccc(S(=O)(=O)[O-])c3)C=C2)c2ccccc2S(=O)(=O)[O-])cc1.[Na+].[Na+]` [Acid Blue 9], the solubility in water is listed as “more than 20 % by weight”.
